Experimental data reported in the supplement of paper PMC12819154, “High-throughput peptide-centric local stability assay extends protein–ligand identification to membrane proteins, tissues and bacteria” (Nature Structural & Molecular Biology, 2025).
Some of the results follow. Most entries show no effect beyond the scatter of the controls.

By UniProt entry, the sequences of proteins in these tests, tags left out. Where a name states a change or a piece, a line headed by the entry shows the natural chain unless it says otherwise.
UniProt A8MT65: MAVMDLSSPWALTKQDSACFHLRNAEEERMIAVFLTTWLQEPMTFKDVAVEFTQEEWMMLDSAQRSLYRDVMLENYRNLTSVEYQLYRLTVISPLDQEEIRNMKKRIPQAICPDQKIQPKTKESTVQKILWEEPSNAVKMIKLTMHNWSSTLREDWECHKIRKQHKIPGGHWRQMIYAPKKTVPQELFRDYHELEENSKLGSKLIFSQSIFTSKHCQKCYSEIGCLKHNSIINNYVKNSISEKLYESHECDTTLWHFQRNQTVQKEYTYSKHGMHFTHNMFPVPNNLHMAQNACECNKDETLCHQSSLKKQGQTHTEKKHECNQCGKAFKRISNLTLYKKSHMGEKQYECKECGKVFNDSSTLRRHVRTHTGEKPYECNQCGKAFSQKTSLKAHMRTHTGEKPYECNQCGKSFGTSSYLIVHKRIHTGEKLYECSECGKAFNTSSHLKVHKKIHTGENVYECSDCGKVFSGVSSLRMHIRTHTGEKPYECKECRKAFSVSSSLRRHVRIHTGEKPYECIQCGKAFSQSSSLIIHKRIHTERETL
UniProt O15212, whole entry: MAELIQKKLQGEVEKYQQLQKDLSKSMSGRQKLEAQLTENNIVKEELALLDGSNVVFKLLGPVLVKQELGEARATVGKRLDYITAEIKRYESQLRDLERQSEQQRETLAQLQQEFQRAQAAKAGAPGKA
UniProt O15126: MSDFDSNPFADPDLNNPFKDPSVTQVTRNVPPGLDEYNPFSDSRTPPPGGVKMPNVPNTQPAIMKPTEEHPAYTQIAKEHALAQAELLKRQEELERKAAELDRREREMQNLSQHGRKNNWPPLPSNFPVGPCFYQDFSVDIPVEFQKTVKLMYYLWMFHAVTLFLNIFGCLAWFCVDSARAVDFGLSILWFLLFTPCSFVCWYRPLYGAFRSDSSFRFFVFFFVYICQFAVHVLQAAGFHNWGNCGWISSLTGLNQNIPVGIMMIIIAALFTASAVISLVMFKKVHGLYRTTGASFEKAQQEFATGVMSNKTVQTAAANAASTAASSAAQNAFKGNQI
UniProt O15050: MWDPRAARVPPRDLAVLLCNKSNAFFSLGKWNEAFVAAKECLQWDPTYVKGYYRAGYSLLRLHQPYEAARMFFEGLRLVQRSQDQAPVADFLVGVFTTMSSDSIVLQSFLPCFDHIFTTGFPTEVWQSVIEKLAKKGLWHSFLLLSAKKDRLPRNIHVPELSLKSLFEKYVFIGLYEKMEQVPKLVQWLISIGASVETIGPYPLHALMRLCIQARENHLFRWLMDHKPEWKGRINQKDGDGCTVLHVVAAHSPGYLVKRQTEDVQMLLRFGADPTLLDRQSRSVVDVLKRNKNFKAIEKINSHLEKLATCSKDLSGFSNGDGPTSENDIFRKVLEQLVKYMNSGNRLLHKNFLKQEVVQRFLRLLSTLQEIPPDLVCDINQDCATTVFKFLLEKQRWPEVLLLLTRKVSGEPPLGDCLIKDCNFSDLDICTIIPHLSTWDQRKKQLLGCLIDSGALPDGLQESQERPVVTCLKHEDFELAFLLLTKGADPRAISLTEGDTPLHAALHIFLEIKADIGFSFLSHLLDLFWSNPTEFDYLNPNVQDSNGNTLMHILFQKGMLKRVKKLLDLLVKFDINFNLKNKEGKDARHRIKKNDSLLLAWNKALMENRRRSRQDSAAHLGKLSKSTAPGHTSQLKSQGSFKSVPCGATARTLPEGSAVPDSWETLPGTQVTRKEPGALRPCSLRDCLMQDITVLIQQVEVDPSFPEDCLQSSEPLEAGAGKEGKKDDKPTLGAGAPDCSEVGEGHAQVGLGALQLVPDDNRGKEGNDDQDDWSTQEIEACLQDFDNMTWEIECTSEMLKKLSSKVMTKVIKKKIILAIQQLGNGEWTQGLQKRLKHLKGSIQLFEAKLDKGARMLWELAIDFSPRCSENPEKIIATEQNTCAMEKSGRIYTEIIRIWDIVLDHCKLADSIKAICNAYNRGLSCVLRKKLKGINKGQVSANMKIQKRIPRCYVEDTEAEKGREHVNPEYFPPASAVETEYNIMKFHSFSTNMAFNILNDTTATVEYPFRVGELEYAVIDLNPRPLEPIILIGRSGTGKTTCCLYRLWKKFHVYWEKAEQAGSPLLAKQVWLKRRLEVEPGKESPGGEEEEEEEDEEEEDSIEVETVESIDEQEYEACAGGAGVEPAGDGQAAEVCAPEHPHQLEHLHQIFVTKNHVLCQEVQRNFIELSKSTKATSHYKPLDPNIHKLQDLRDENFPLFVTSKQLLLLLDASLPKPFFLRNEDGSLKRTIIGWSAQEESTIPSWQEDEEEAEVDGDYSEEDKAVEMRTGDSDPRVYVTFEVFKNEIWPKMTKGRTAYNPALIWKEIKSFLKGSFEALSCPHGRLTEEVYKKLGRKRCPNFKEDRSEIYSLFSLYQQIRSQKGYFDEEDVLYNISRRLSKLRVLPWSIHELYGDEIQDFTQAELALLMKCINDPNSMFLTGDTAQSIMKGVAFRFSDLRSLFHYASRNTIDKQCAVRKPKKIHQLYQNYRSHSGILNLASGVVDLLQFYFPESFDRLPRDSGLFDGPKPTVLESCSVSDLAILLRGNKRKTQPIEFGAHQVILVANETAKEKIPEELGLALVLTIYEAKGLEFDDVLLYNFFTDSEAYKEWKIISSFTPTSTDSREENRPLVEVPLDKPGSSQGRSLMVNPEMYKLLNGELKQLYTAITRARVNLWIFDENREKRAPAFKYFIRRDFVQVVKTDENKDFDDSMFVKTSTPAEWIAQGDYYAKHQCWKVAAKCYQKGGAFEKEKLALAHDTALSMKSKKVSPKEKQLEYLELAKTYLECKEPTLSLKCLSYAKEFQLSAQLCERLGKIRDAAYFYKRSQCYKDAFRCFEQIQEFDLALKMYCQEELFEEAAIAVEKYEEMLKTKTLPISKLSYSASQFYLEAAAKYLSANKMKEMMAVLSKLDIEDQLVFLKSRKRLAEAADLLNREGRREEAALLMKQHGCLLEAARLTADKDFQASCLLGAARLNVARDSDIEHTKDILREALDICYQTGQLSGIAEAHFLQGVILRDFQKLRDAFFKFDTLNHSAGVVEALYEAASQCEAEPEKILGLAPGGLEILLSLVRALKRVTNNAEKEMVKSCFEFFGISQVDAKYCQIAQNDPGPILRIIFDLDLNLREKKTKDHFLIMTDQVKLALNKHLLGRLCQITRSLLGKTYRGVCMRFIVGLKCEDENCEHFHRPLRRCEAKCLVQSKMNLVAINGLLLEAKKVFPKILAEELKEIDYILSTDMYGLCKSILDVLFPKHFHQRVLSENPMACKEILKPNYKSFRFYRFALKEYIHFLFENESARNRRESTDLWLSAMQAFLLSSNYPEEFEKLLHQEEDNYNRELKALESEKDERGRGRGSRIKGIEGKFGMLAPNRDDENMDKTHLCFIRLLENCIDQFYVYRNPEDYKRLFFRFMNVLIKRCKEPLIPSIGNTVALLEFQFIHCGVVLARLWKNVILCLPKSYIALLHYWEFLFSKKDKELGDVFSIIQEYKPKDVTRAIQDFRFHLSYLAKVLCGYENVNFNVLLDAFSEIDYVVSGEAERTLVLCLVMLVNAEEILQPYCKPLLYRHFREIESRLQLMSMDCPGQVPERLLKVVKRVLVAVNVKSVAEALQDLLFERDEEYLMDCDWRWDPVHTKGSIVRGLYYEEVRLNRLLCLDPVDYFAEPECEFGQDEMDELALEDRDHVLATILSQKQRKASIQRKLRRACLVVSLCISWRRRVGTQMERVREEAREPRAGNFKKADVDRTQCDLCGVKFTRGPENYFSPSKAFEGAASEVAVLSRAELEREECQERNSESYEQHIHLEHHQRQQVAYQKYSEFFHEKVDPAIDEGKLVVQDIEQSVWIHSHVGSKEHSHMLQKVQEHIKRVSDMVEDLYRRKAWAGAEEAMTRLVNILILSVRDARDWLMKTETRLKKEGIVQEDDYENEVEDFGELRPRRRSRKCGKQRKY
UniProt O00444: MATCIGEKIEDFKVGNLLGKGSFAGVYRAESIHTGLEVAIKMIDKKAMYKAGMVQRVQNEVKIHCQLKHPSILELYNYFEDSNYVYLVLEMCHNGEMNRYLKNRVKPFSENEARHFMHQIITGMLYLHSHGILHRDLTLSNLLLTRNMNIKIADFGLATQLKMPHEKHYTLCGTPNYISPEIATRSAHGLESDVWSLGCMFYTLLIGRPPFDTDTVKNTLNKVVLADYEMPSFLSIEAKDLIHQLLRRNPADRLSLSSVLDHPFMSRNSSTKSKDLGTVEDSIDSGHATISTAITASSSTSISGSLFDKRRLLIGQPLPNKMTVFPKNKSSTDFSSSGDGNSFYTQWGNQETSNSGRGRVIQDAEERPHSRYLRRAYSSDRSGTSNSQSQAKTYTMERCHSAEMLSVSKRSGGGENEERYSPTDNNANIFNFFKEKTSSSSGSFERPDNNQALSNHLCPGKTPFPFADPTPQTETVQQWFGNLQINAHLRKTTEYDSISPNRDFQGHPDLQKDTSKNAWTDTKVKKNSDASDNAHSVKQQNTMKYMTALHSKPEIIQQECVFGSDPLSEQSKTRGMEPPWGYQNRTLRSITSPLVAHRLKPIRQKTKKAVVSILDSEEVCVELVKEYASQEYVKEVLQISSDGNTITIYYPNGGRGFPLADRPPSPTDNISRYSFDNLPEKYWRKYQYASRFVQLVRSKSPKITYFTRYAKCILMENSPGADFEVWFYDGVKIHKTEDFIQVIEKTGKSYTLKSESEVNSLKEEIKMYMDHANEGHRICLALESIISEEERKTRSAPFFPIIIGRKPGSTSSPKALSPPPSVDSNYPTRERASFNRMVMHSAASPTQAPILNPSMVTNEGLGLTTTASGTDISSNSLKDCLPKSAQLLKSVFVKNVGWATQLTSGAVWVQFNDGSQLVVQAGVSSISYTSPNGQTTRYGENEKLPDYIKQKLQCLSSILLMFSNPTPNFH
UniProt O00559: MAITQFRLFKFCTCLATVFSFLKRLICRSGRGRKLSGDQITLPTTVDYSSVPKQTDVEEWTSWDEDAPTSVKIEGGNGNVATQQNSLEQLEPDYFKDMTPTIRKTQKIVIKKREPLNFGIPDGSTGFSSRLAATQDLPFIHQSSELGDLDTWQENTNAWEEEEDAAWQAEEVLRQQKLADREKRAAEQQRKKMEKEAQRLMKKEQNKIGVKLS
UniProt O00743: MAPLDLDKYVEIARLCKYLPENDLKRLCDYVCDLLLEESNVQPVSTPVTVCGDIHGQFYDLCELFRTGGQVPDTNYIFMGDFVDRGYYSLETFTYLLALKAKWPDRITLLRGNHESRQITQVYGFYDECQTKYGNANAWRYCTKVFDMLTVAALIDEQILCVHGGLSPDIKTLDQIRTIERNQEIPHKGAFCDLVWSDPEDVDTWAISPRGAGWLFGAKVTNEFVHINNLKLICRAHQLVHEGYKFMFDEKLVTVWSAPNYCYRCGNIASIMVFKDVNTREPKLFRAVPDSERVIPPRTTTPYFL
UniProt O00429, whole entry: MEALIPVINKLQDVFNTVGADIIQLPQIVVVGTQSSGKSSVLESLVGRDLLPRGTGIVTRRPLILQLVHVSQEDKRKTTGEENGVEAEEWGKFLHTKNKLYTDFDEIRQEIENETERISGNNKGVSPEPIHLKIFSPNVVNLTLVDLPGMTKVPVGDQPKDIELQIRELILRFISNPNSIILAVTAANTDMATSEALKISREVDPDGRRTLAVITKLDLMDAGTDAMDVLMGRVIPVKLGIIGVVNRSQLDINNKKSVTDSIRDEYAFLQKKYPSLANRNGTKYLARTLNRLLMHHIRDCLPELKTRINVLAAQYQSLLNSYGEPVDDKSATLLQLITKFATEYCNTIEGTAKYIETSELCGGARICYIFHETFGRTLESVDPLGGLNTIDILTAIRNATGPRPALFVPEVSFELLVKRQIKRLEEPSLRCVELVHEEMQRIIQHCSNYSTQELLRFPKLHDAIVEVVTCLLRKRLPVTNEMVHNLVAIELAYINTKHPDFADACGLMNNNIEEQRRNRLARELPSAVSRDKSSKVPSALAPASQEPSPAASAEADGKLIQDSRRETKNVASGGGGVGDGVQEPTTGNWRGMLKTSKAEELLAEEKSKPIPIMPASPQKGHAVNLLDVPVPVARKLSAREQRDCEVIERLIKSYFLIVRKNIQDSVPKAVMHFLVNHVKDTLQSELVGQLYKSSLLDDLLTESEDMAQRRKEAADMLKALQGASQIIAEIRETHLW
UniProt O14713: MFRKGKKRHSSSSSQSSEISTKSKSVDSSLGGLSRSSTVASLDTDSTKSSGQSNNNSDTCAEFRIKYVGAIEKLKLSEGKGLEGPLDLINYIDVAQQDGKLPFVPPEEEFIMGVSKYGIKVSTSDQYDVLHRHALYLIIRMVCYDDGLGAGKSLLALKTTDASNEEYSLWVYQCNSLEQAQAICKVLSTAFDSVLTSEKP

compound: Cc1nc(Nc2ncc(C(=O)Nc3c(C)cccc3Cl)s2)cc(N2CCN(CCO)CC2)n1 [dasatinib]; test: log2 fold change of tryptic peptide abundance, ligand vs vehicle (limited proteolysis) (log2 ratio); higher = more trypsin-susceptible (destabilized); details: ligand concentration: 5 uM; sample: K562 cleared lysate

Row | Target | log2 fold change
1 | UniProt A8MT65 (peptide sequence: KQGQTHTEKK, peptide start residue: 310) | 0.531
2 | PFDN6 (peptide sequence: AGAPGKA, peptide start residue: 123) (UniProt O15212) | -0.102
3 | SCAMP1 (peptide sequence: EHALAQAELLK, peptide start residue: 79) (UniProt O15126) | 0.093
4 | LBA1 (peptide sequence: STAPGHTSQLK, peptide start residue: 626) (UniProt O15050) | -0.688
5 | UniProt O00444 (peptide sequence: VIQDAEERPHSR, peptide start residue: 360) | 0.444
6 | EBAG9 (peptide sequence: KREPLNFGIPDGSTGFSSR, peptide start residue: 112) (UniProt O00559) | -0.00241
7 | PPP6C (peptide sequence: AKWPDRITLLR, peptide start residue: 101) (UniProt O00743) | -0.131
8 | ZNF609 (peptide sequence: DTSKPTPGTSLFTPSEGAASKK, peptide start residue: 98) (UniProt O15014) | 0.484
9 | DNM1L (peptide sequence: TTGEENGVEAEEWGKFLHTK, peptide start residue: 78) (UniProt O00429) | 0.226
10 | ITGB1BP1 (peptide sequence: SSTVASLDTDSTK, peptide start residue: 36) (UniProt O14713) | 0.322

2 neighbouring records from above, quoted:
Row | Target | log2 fold change
4 | LBA1 (peptide sequence: STAPGHTSQLK, peptide start residue: 626) (UniProt O15050) | -0.688
5 | UniProt O00444 (peptide sequence: VIQDAEERPHSR, peptide start residue: 360) | 0.444
